Laboratory results as given in PubChem BioAssay AID2685 (National Center for Advancing Translational Sciences (NCATS), 2010).
The other results are listed elsewhere or left out. Shown are side measurements of this screen, not its main read-out; they come without a call. Most of these compounds were active or inconclusive in the main read-out, so they are no random draw. Words in brackets tell the shape of the fitted curve; partial curves, single points and poor fits give uncertain potencies. Where a SMILES comes first, the peptide text is derived from it. [ ]: non-standard residue; d: D form. The star is where a group is joined. Phe(4-Me) = Cc1ccc(C[CH](N)C(=O)O)cc1; Bz = O=C(c1ccccc1)*

Assay: qHTS Assay for Lipid Storage Modulators in Drosophila S3 Cells;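 as to cell number change: cells counted by Cell Tracker Red CMTPX staining in the red channel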
Conditions: BODIPY lipid droplet fluorescence, 18-24 h; for cell number change: measured here: cell count max response, cells fed with added oleic acid
Procedure, shortened: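 Drosophila S3 cells loaded with oleic acid (400 uM, as added) and compounds at several concentrations; lipid droplets imaged by 488-nm laser-scanning cytometry, 500–530 nm intensity and object ratio to cell channel. Percent activity normalized to 20 uM Triacsin C.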

[1] = measured here: lipid fluorescence (Fed channel) AC50, cells fed with added oleic acid
[2] = measured here: cell number channel AC50, cells fed with added oleic acid

In the case of `COc1ccc(C(=O)Nc2c(C)ccc3nsnc23)cc1[N+](=O)[O-]`, the cell number change is reported as 29.3% and the AC50 [1] is reported as 18.4 µM [rising, partial curve, poor fit].

`CN(CC(=O)Nc1ccc(Cl)c(S(=O)(=O)N(C)C)c1)Cc1ccccc1` showed a cell number change of 19.2%.

In the case of `Cc1ccc(OCCNC(=O)c2ccccc2OCc2c(C)noc2C)cc1`, the cell number change is reported as 6.89% and the AC50 [1] is reported as 6.51 µM [rising, partial curve, poor fit].

With `O=c1cc(-c2ccc(O)cc2)oc2ccccc12` the cell number change was -11% and the AC50 [1] was 2.06 µM [rising, partial curve].

With `N#CC1=C(N)OC2=C(CC/C2=C\c2ccccc2Cl)C1c1ccccc1Cl` (centres undefined) the cell number change was -2.41% and the AC50 [1] was 16.4 µM [falling, single point].

Molecule `CC(=O)C1=C(O)C(=O)N(c2ccc(O)cc2)C1c1ccc(Cl)cc1` (centres undefined) has a cell number change of -3.31%.

In the case of `Cc1ccc(OCC(=O)NC(C)c2ccc(Cl)c(Cl)c2)c([N+](=O)[O-])n1` (centres undefined), the cell number change is reported as -12.8% and the AC50 [1] is reported as 5.17 µM [rising, single point].

With `Nc1nc(CSc2nc3ccccc3[nH]2)nc(N2CCOCC2)n1` the AC50 [1] was 0.058 µM [rising, full curve].

For `ClC1=C(Cl)C(Cl)=C(Cl)C1=C/C=C/c1ccccc1`, the cell number change was -11.8% and the AC50 [1] was 16.4 µM [falling, partial curve].

For `Cc1ccc(Cn2nnc3c(=O)[nH]c(C4CCCN(S(=O)(=O)c5ccccc5)C4)nc32)cc1` (centres undefined), the cell number change was 100% and the AC50 [2] was 18.4 µM [rising, single point].

With `COc1ccc(/C=C/CN2CCC(n3nccc3NC(=O)C3CCCC3)CC2)cc1` the cell number change was 16.6% and the AC50 [1] was 2.59 µM [rising, full curve].

In the case of `CCOc1ccc2nc(NC(=O)Nc3cccs3)sc2c1`, the cell number change is reported as -29.3% and the AC50 [1] is reported as 0.651 µM [rising, full curve].

In the case of `CCC(Sc1ccc2nnc(CCNS(=O)(=O)c3ccc(OC)cc3)n2n1)C(=O)OC` (centres undefined), the cell number change is reported as 1.59% and the AC50 [2] is reported as 0.103 µM [falling, full curve, poor fit].

In the case of `COc1cccc(-c2nc(CS(=O)(=O)CC(=O)N3CCc4ccccc43)c(C)o2)c1`, the cell number change is reported as 0.227%.

For `Cc1ccc(OCCC(=O)OC(C)C(=O)Nc2ccc(Cl)cn2)cc1` (centres undefined), the cell number change was 21.5%.

In the case of `O=C(c1cccs1)N1CCCC(N2CCN(c3ccc(F)cc3)CC2)C1` (centres undefined), the cell number change is reported as 35.5%, the AC50 [2] is reported as 20.6 µM [rising, single point] and the AC50 [1] is reported as 23.1 µM [falling, partial curve].

Work on `Cc1cccc(S(=O)(=O)C(C#N)c2nc3ccccc3nc2N2CCOCC2)c1` (centres undefined) yielded a cell number change of -12%.

In the case of `CS(=O)(=O)Nc1ccc(C(=O)Nc2ccc(S(=O)(=O)N3CCCCC3)cc2)cc1`, the cell number change is reported as -9.83% and the AC50 [1] is reported as 29.1 µM [falling, single point].

For `O=[N+]([O-])c1ccc(Sc2ccccc2)nc1`, the AC50 [2] was 6.51 µM [rising, single point] and the AC50 [1] was 29.1 µM [falling, single point].

With `CCn1nc(C)c(Br)c1C(=O)Sc1ccccc1Cl` the AC50 [1] was 18.4 µM [falling, single point].

In the case of `O=C(c1cnc2n(c1=O)CCS2)N(c1ccccc1)C1CCCCC1`, the cell number change is reported as -25.1% and the AC50 [1] is reported as 32.6 µM [falling, single point].

With `Cc1cc(C)c(OCC(=O)Nc2ccc(N3CCOCC3)cc2)c(Br)c1` the cell number change was 35.2%, the AC50 [2] was 0.731 µM [rising, full curve, poor fit] and the AC50 [1] was 16.4 µM [rising, partial curve].

In the case of `COc1ccc(CNC(=O)CCCSc2ccccc2)cc1`, the cell number change is reported as 8.57% and the AC50 [1] is reported as 29.1 µM [rising, single point].

In the case of `O=C(OCc1ccc(Cl)cc1Cl)c1ccncc1`, the cell number change is reported as -38.5%, the AC50 [2] is reported as 4.11 µM [falling, full curve, poor fit] and the AC50 [1] is reported as 29.1 µM [falling, partial curve, poor fit].

`CN(C)c1cccc(C(=O)OCC(=O)Nc2nccs2)c1` showed a cell number change of 27.6%.

With `O=C(NCCCN1CCOCC1)c1ccc(CS(=O)(=O)c2ccc(Br)cc2)o1` the cell number change was -17.5% and the AC50 [1] was 2.31 µM [rising, single point].

In the case of `Cc1cc(C)c(NC(=O)COC(=O)CCn2c(C)csc2=O)c(C)c1`, the AC50 [2] is reported as 4.11 µM [falling, single point].

For `O=C(COC(=O)/C=C/c1cccs1)Nc1ccc(F)cc1`, the cell number change was -48.7%, the AC50 [2] was 4.11 µM [falling, full curve] and the AC50 [1] was 4.61 µM [falling, full curve, poor fit].

For `CSC(C1CCCC1)n1nnc2ccccc21` (centres undefined), the cell number change was 13.9% and the AC50 [1] was 0.0517 µM [rising, full curve, poor fit].

For `O=C(CS(=O)(=O)c1ccc(F)cc1)Nc1nccs1`, the AC50 [1] was 9.2 µM [rising, partial curve].

In the case of `CCn1c(=O)c(=O)[nH]c2cc(C(=O)N(C)Cc3ccc(OC)c(F)c3)ccc21`, the cell number change is reported as 8.4% and the AC50 [1] is reported as 6.51 µM [rising, single point].

With `COc1cc2c(cc1OC)C(c1ccc(OC)c(OC)c1OC)CC(=O)N2` (centres undefined) the cell number change was -12.7% and the AC50 [1] was 0.58 µM [rising, single point].

In the case of `CCS(=O)(=O)Nc1cccc(-c2nc3cccnc3s2)c1C`, the cell number change is reported as 42.6%, the AC50 [2] is reported as 6.51 µM [rising, partial curve] and the AC50 [1] is reported as 7.31 µM [rising, partial curve].

`O=C(O)CCCn1cc(NC(=O)COc2ccccc2F)cn1` gave a cell number change of 23.8%.

With `CCn1c(SCC(=O)Nc2cccnc2Cl)nnc1-c1ccccc1` the cell number change was 34.2%, the AC50 [2] was 7.31 µM [rising, partial curve] and the AC50 [1] was 3.26 µM [rising, single point].

For `Cc1ccc(CC(NC(=O)c2ccccc2)C(=O)NC(Cc2ccccc2)C(=O)O)cc1` (centres undefined) (Bz-[Phe(4-Me)]-Phe-OH; configuration not given here), the cell number change was -15.7%, the AC50 [2] was 6.51 µM [falling, single point] and the AC50 [1] was 3.66 µM [falling, single point].

For `COc1ccccc1NS(=O)(=O)c1cc(NC(=O)Nc2ccc(Cl)cc2Cl)ccc1N1CCCCC1`, the cell number change was -9.73% and the AC50 [1] was 16.4 µM [falling, single point].

With `O=[N+]([O-])c1ccc(S(=O)(=O)CC(CN2CCOCC2)N2CCOCC2)cc1` (centres undefined) the cell number change was -3.73%, the AC50 [2] was 0.461 µM [falling, full curve] and the AC50 [1] was 1.84 µM [falling, partial curve].

With `CN(Cc1ccc(Br)s1)C(=O)CNC(=O)c1ccc2c(c1)OCO2` the cell number change was -21.1% and the AC50 [1] was 23.1 µM [falling, single point].

With `O=c1[nH]c2ccc(Cl)cc2c(-c2ccccc2)c1SC(=S)N1CCCCC1` the cell number change was -71.9%, the AC50 [2] was 29.1 µM [falling, partial curve] and the AC50 [1] was 18.4 µM [falling, single point].

`COc1ccccc1NC(=O)CCn1c(=S)oc2ccccc21` gave a cell number change of 18.4%.

With `Cn1c(SCc2nc(-c3ccc(Cl)cc3)no2)nnc1-c1ccccc1` the cell number change was 81.8%, the AC50 [2] was 6.51 µM [rising, partial curve] and the AC50 [1] was 6.51 µM [rising, single point].

In the case of `N#Cc1c(NC(=O)CSc2nc3ccccc3s2)sc2c1CCCC2`, the AC50 [2] is reported as 2.91 µM [rising, partial curve] and the AC50 [1] is reported as 9.2 µM [rising, partial curve, poor fit].

With `CC(=O)Oc1ccc(/C=C(\NC(=O)c2ccco2)C(=O)Nc2ccc(C(C)=O)cc2)cc1` the cell number change was -14.5% and the AC50 [2] was 2.06 µM [falling, partial curve, poor fit].

In the case of `CC1=C/C(=N\OS(=O)(=O)c2ccccc2)C=CC1=O`, the cell number change is reported as -71.3%, the AC50 [2] is reported as 1.64 µM [falling, full curve] and the AC50 [1] is reported as 1.16 µM [falling, full curve].

In the case of `COc1ccccc1CNC(=O)C12CC3CC(CC(C3)C1)C2`, the cell number change is reported as -7.25% and the AC50 [1] is reported as 0.58 µM [falling, single point].

Molecule `CC(CNC(=O)C1CCCCC1C(=O)O)c1ccccc1` (centres undefined) has a cell number change of 1.08%.

With `CCc1noc(C)c1C(=O)N1CCN(S(=O)(=O)c2c(C)c(C)cc(C)c2C)CC1` the cell number change was -1.59% and the AC50 [2] was 5.8 µM [falling, single point].

In the case of `CC(C)Nc1ccc(C(CC(N)=O)NC(=O)Cc2ccc(Br)cc2)cc1[N+](=O)[O-]` (centres undefined), the cell number change is reported as 12.7% and the AC50 [1] is reported as 18.4 µM [rising, single point].

With `Cc1cc(C)c2nc(C(F)(F)F)nc(N3CCN(C(=O)c4ccco4)CC3)c2c1` the cell number change was -36.8%, the AC50 [2] was 2.06 µM [falling, full curve] and the AC50 [1] was 6.51 µM [falling, partial curve, poor fit].

`CC(OC(=O)CCN1C(=O)C2CC=CCC2C1=O)C(=O)Nc1cccc(C#N)c1` (centres undefined) gave a cell number change of 19.3%.

In the case of `CCCN(CC(=O)Nc1ccccc1OC)C(=O)CCC(=O)c1ccc(OCC)cc1`, the cell number change is reported as -13.8% and the AC50 [1] is reported as 4.11 µM [falling, partial curve].

With `O=C(Cc1cccs1)Nc1ccc(N2CCOCC2)cc1` the cell number change was -0.0925% and the AC50 [1] was 0.116 µM [falling, single point].

With `O=C(COc1ccc(Cl)cc1Cl)NC(=O)NC1CCCC1` the cell number change was 20.1% and the AC50 [2] was 1.03 µM [rising, full curve, poor fit].

For `COc1ccc(C(=O)NC2CCCc3ccccc32)cc1S(=O)(=O)N1CCOCC1` (centres undefined), the AC50 [2] was 1.3 µM [rising, single point].

For `COc1ccc(OC)c(S(=O)(=O)N(C)CC(=O)Nc2ccc3c(c2)OCO3)c1`, the cell number change was -8.67% and the AC50 [1] was 0.259 µM [rising, partial curve].

With `CCN1C(=O)CC(NNC(=O)c2ccc(Cl)cc2)C1=O` (centres undefined) the AC50 [1] was 18.4 µM [rising, single point].

For `O=C1CC(Cc2ccccc2)C(=O)N1c1ccc(Cl)cn1` (centres undefined), the cell number change was 9.2% and the AC50 [1] was 29.1 µM [rising, single point].

With `CCOc1ccc(Cc2c(Cl)nc(SC)nc2N(C)C)cc1` the cell number change was -8.99% and the AC50 [1] was 16.4 µM [rising, single point].
